Measurements reported in publication PMC9236904.

Protein sequences, listed by entry. Tags and fused reporters are not part of them. Lines headed by an entry give the natural chain unless they say otherwise; changes in a name come on top.
UniProt Q9GZV5: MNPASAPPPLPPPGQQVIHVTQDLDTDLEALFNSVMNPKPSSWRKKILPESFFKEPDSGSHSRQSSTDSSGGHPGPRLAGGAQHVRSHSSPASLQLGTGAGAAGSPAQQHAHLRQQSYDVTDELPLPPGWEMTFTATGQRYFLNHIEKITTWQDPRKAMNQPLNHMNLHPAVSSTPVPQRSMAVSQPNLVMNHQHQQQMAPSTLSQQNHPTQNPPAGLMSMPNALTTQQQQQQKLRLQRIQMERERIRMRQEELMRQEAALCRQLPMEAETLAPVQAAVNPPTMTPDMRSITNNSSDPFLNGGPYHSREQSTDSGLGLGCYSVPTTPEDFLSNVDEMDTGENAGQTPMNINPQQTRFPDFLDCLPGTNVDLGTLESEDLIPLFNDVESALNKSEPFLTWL
UniProt Q15562: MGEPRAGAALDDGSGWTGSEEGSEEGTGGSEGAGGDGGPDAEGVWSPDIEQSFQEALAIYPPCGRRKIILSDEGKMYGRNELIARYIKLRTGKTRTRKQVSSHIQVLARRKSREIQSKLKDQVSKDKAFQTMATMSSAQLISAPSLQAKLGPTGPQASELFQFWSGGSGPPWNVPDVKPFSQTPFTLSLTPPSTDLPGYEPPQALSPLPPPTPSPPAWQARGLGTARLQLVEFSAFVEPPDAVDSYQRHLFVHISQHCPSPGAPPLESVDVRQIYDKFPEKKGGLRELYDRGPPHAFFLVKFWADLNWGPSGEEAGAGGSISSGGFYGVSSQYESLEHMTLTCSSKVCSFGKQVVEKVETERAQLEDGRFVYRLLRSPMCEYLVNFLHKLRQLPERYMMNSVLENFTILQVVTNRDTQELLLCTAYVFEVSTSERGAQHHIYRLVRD

Target: human FLAG-TAZ^S89A (human) (UniProt Q9GZV5)
Assay: affinity purification with mass spectrometry; HUVECs infected with AdCtrl (GFP), AdYAP^S127A or AdTAZ^S89A; immunoprecipitation with FLAG M2 beads 16 h after transduction; SDS-PAGE, in-gel trypsin digestion, LC-MS, label-free quantification

Substance: TEAD2 (from UniProt Q15562 1-447)
- binding: binds

These are yes or no findings as the source states them, for the method shown. Binding seen in cells or lysates may run through a third protein. A yes stands for co-enrichment or nearness to the bait. Other partners may have been found.
